Source: PubChem BioAssay AID1259286 (Sanger Institute, 2017)
Shown is one part, drawn at random, of 794 reagents tested. In the full data, 17 (2.1%) got an active call. 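Calls use knock-down alone only; synergy above 0.15 marked separately; viability seems capped at control level; exposure time not given.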 A number with no mark means an inactive call. The numbers tell different reagents against one gene apart. Not all columns of the deposit are shown. Not given: the amount of reagent, the time to read-out.

Purpose: 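Kinome knock-downs lethal on their own or synergistic with anchor drugs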 (primary screen)
Cells: NCI-H630 human colorectal cancer cells
Reagents: siRNA pool against human genes
Conditions: anchor drugs BYL719 at 1 µM, cetuximab at 5 µg/ml or trametinib at 10 nM, or DMSO vehicle alone; exposure time not given
Detection: 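Viability relative to non-targeting pool wells, averaged over replicates, with robust z-score for knock-down alone and a synergy score for each anchor drug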
Scale: viability z-score, knock-down alone: higher = more viable cells, weaker knock-down effect; viability vs control, knock-down alone: higher = more viable cells; synergy score with trametinib: higher = stronger synergistic killing with trametinib; synergy score with BYL719: higher = stronger synergistic killing with BYL719
Active means: 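Essential call: robust z-score of viability with siRNA alone lower than -3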
Calls: active = essential when knocked down alone; inactive = not essential alone

target gene,reagent,"viability z-score, knock-down alone","viability vs control, knock-down alone (fraction of control)",synergy score with trametinib,synergy score with BYL719
"MOS (MOS proto-oncogene, serine/threonine kinase)",1,-0.177,0.976,-0.071,0.111
BRDT (bromodomain testis associated),1,-0.178,0.976,-0.071,-0.0478
"ROS1 (ROS proto-oncogene 1, receptor tyrosine kinase)",1,0.464,1,-0.0456,0.0525
AK2 (adenylate kinase 2),1,0.464,1,-0.0479,-0.0814
MAP3K5 (mitogen-activated protein kinase kinase kinase 5),1,0.464,1,-0.028,-0.00612
MAP2K7 (mitogen-activated protein kinase kinase 7),1,0.464,1,-0.0292,0.0479
GRK2 (G protein-coupled receptor kinase 2),1,0.264,0.992,-0.0377,0.0507
SGK3 (serum/glucocorticoid regulated kinase family member 3),1,0.464,1,-0.0479,-0.0373
DGKD (diacylglycerol kinase delta),1,-1.85,0.912,-0.0762,-0.115
NPR2 (natriuretic peptide receptor 2),1,-0.51,0.963,-0.0555,-0.115
TGFBR1 (transforming growth factor beta receptor 1),1,0.464,1,-0.0479,-0.0814
CDK17 (cyclin dependent kinase 17),1,0.464,1,-0.0479,-0.0601
MAP3K21 (mitogen-activated protein kinase kinase kinase 21),1,0.464,1,-0.0479,-0.0626
CDK14 (cyclin dependent kinase 14),1,0.464,1,-0.0479,0.00912
MAPKAPK2 (MAPK activated protein kinase 2),1,0.464,1,-0.0479,0.0149
"PCK2 (phosphoenolpyruvate carboxykinase 2, mitochondrial)",1,0.464,1,-0.00855,-0.0814
FBXW7 (F-box and WD repeat domain containing 7),1,0.464,1,0.0512,-0.0814
DGUOK (deoxyguanosine kinase),1,0.464,1,-0.0479,0.0239
PANK2 (pantothenate kinase 2),1,-0.575,0.961,-0.0853,-0.046
CDC42BPA (CDC42 binding protein kinase alpha),1,0.464,1,-0.046,0.0244
IP6K3 (inositol hexakisphosphate kinase 3),1,-1.43,0.928,0.0216,0.0707
SMG1,1,0.464,1,-0.0479,0.0619
IRAK3 (interleukin 1 receptor associated kinase 3),1,-0.0163,0.982,-0.0652,0.0372
CDK5 (cyclin dependent kinase 5),1,0.249,0.992,-0.0556,-0.0889
"PIKFYVE (phosphoinositide kinase, FYVE-type zinc finger containing)",1,0.464,1,-0.0479,-0.0674
RAD21 (RAD21 cohesin complex component),1,-1.37,0.931,-0.0172,-0.01

9 neighbouring reagents from above, for reference:
target gene,reagent,"viability z-score, knock-down alone","viability vs control, knock-down alone (fraction of control)",synergy score with trametinib,synergy score with BYL719
FBXW7 (F-box and WD repeat domain containing 7),1,0.464,1,0.0512,-0.0814
DGUOK (deoxyguanosine kinase),1,0.464,1,-0.0479,0.0239
PANK2 (pantothenate kinase 2),1,-0.575,0.961,-0.0853,-0.046
CDC42BPA (CDC42 binding protein kinase alpha),1,0.464,1,-0.046,0.0244
IP6K3 (inositol hexakisphosphate kinase 3),1,-1.43,0.928,0.0216,0.0707
SMG1,1,0.464,1,-0.0479,0.0619
IRAK3 (interleukin 1 receptor associated kinase 3),1,-0.0163,0.982,-0.0652,0.0372
CDK5 (cyclin dependent kinase 5),1,0.249,0.992,-0.0556,-0.0889
"PIKFYVE (phosphoinositide kinase, FYVE-type zinc finger containing)",1,0.464,1,-0.0479,-0.0674

The listing continues:
target gene,reagent,"viability z-score, knock-down alone","viability vs control, knock-down alone (fraction of control)",synergy score with trametinib,synergy score with BYL719
CDADC1 (cytidine and dCMP deaminase domain containing 1),1,0.464,1,-0.0335,-0.04
STK26 (serine/threonine kinase 26),1,-0.694,0.956,-0.0896,-0.0929
WNK3 (WNK lysine deficient protein kinase 3),1,0.0532,0.984,-0.0627,-0.0957
POLR2B (RNA polymerase II subunit B),1,0.464,1,0.0102,0.0852
MAP2K2 (mitogen-activated protein kinase kinase 2),1,0.464,1,-0.0272,-0.0558
MAP3K7 (mitogen-activated protein kinase kinase kinase 7),1,0.464,1,-0.0479,0.0226
"PKDCC (protein kinase domain containing, cytoplasmic)",1,0.464,1,-0.0479,-0.0619
BMPR1A (bone morphogenetic protein receptor type 1A),1,0.464,1,-0.0479,-0.0814
TK2 (thymidine kinase 2),1,0.464,1,-0.0479,-0.0814
TESK2 (testis associated actin remodelling kinase 2),1,0.464,1,-0.0479,-0.0814
PIK3CB,1,0.464,1,-0.0366,-0.0727
"YES1 (YES proto-oncogene 1, Src family tyrosine kinase)",1,0.464,1,-0.0479,0.079
CDKN1B (cyclin dependent kinase inhibitor 1B),1,0.366,0.996,0.00713,-0.0363
"MERTK (MER proto-oncogene, tyrosine kinase)",1,-0.619,0.959,-0.0532,-0.0571
CSNK1E (casein kinase 1 epsilon),1,-0.382,0.968,-0.0783,-0.0554
ILK (integrin linked kinase),1,0.464,1,-0.0479,-0.0814
ILK (integrin linked kinase),2,-0.678,0.957,-0.0575,-0.0107
PIP5KL1 (phosphatidylinositol-4-phosphate 5-kinase like 1),1,0.464,1,-0.0479,-0.00556
PKN1 (protein kinase N1),1,0.464,1,-0.0479,-0.0814
STK32A (serine/threonine kinase 32A),1,0.464,1,-0.0479,-0.0814
OBSCN,1,0.464,1,-0.0479,-0.0814
ITSN1 (intersectin 1),1,0.464,1,-0.0227,-0.0261
ADCK2 (aarF domain containing kinase 2),1,0.416,0.998,0.0287,0.0546
ALDH18A1 (aldehyde dehydrogenase 18 family member A1),1,0.464,1,-0.0251,0.0228
SCYL3 (SCY1 like pseudokinase 3),1,0.464,1,0.0437,0.0801
PIP5K1A (phosphatidylinositol-4-phosphate 5-kinase type 1 alpha),1,-0.444,0.966,-0.0805,-0.0131
WT1 (WT1 transcription factor),1,-1.09,0.941,-0.079,-0.135
"ABL1 (ABL proto-oncogene 1, non-receptor tyrosine kinase)",1,0.464,1,0.0257,-0.00211
SNRK (SNF related kinase),1,-0.0666,0.98,0.0784,0.0209
CHKA (choline kinase alpha),1,-2.69,0.881,-0.13,0.0185
FASTK (Fas activated serine/threonine kinase),1,-1.78,0.915,-0.0895,-0.0161
"KRAS (KRas proto-oncogene, GTPase)",1,0.464,1,0.105,0.145
THNSL1 (threonine synthase like 1),1,0.464,1,-0.0479,-0.0814
CDK4 (cyclin dependent kinase 4),1,0.464,1,-0.0479,0
PTK6 (protein tyrosine kinase 6),1,0.464,1,-0.0479,0.0165
MAPK9 (mitogen-activated protein kinase 9),1,0.464,1,-0.0479,-0.0696
EPHA3 (EPH receptor A3),1,0.342,0.995,-0.00422,0.0598
